# Construct, isoform or probe ends are uncertain for at least one entry. A negative result means that nothing was seen under these conditions. For some assays here: The comparison behind a weaker result is the experiment's own reference, which may not be listed here. For some assays here: Results from cells or extracts need not show a direct contact.
# The chains behind the UniProt entries cited, without tags or fusion partners. Residues count along the entry.
# UniProt P05107, 747-769: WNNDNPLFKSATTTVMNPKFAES
# Key:
# [1] = biological target: CD18cyt peptide B16 (N-terminal) (Homo sapiens) (UniProt P05107); test: EMSA; details: 12.5-25 uM peptide, streptavidin, 40 uM tRNA, synthetic protein, protein details: synthetic, biotinylated, streptavidin-bound, label: 32P
# [2] = biological target: CD18cyt peptide C17 (middle portion) (Homo sapiens) (UniProt P05107); test: EMSA; details: 12.5-25 uM peptide, streptavidin, 40 uM tRNA, synthetic protein, protein details: synthetic, biotinylated, streptavidin-bound, label: 32P
# [3] = tested on: LFA-1 (CD18/beta-2 integrin with alpha-L), endogenous (Homo sapiens); test: EMSA; details: Jurkat E6 lysate, protein in an extract, label: 32P
# [4] = biological target: CD18cyt peptide A23 (carboxy-terminal half) (Homo sapiens) (UniProt P05107); test: EMSA; details: 12.5-25 uM peptide, streptavidin, 40 uM tRNA, synthetic protein, protein details: synthetic, biotinylated, streptavidin-bound, label: 32P
# [5] = tested on: LFA-1 (CD18/beta-2 integrin), endogenous in cells (Homo sapiens); test: activity in cells; details: protein in cells, dose not given here
# [6] = tested on: monoclonal antibody OKT3 (anti T-cell receptor epsilon chain); test: EMSA; details: antibody alone without lysate; purified native protein; label: 32P; variant of D20
# [7] = tested on: monoclonal antibody MHM23 (anti LFA-1 beta subunit); test: EMSA; details: antibody alone without lysate; purified native protein; label: 32P; variant of D20
sequence,measurement,setting,value
GGGCGCUAAGUCCUCGCUCACAAGGUGCAAUGCAAUAUGUGAGUGCGCCGCCCUUUCUCUCGCGCGACUCGGACCUAC [TR-D31],binding result,[1]; variant of D31,binds more weakly
same,binding result,[2]; variant of D31,binds more weakly
same,binding result,"[3]; analogous to TR-D20, data not shown, variant of D31",binds
same,binding result,[4]; variant of D31,no binding
GGGCGCUAAGUCCUCGCUCACGGCGCAUUGGCCGAAUUUCUGACUACCGUGAAUGAGGGUACGCGCGACUCGGAUCCUAC [TR-D42],binding result,[1]; variant of D42,no binding
same,binding result,[2]; variant of D42,no binding
same,binding result,"[3]; 25-40 uM tRNA, variant of D42",no binding
same,binding result,[4]; variant of D42,no binding
same,functional effect of the aptamer,"[5]; no effect on PMA-induced adhesion of PBMC to ICAM-1, variant of D42",not active
GGGCGCUAAGUCCUCGCUCAUACAACGAGGGGUCGUGUAGGGAUGUAUGGGCUUGGACACACGCGCGACUCGGAUCCUAC [TR-D20],binding result,"[1]; 1 mM MgCl2, 23 C, variant of D20",binds
same,binding result,[2]; variant of D20,binds
same,binding result,"[3]; 25-40 uM tRNA, 1 mM MgCl2, supershift with MHM23 and MEM170, variant of D20",binds
same,binding result,[6],no binding
same,binding result,[7],no binding
same,binding result,[4]; variant of D20,no binding
same,functional effect of the aptamer,"[5]; vaccinia-expressed RNA almost completely blocks PMA-induced adhesion to ICAM-1 in Jurkat, also reduced in PBMC, variant of D20",active
GGGCGCUAAGUCCUCGCUCAUGCGCGUCCCAUGGGGUAUAGAGGGGUCGAAGUGGACGCGCGACUCGGAUCCUAC [TR-D28],binding result,[1]; variant of D28,binds
same,binding result,[2]; variant of D28,binds
same,binding result,"[3]; analogous to TR-D20, data not shown, variant of D28",binds
same,binding result,[4]; variant of D28,no binding

# Source: US20070287153
